Results: PubChem BioAssay AID248 (DTP/NCI, 2004)
The list shows only some results of the screen, not a fair sample: it gathers tests that were run many times, whatever their T/C, doses with no T/C, and many T/C values between a quarter and a half above the control. Further doses and runs are listed elsewhere. T/C gives the treated animals as a percentage of the vehicle group. Some doses have a count of surviving animals in place of a T/C: the source holds a T/C of zero for them, seemingly a mark for toxic or unscored doses. Some doses without a T/C left all or most animals alive at the check, yet need not have been tolerated: the source hardly ever lists a survival T/C far under the control, and the zero likely stands for such cases as well. Survivors were counted at the toxicity check, usually on the fifth day, unless a day is given; later deaths do not show. Schedule codes are those of the source, taken here to give the interval after Q, in days (D) or hours (H), and the number of doses after X. Some entries hold several experiments; the results are listed from low to high. For survival time, the PubChem record calls one and a half times the control and up active, and a quarter to a half above the control has no call in these data; cut-offs in other NCI protocols can differ. Some schedules carry Z or #; the key to these is not given.

System: L1210 leukemia ip in BDF1 mice, survival T/C
Test: NCI In Vivo Anticancer Drug Screen. Data for tumor model L1210 Leukemia (intraperitoneal) in B6D2F1 (BDF1) mice
Settings: T/C endpoint: mean survival time, higher T/C = longer survival
[1] = dose: 100.0 mg/kg/injection, schedule: Q01DX009 (ip), vehicle: saline with Tween-80
[2] = dose: 200.0 mg/kg/injection, schedule: Q04DX003 (ip), vehicle: Klucel (hydroxypropylcellulose) (HPC)
[3] = dose: 400.0 mg/kg/injection, schedule: Q04DX003 (ip), vehicle: Klucel (hydroxypropylcellulose) (HPC)
[4] = dose: 200.0 mg/kg/injection, schedule: Q01DX001 (ip), vehicle: carboxymethylcellulose (CMC)
[5] = dose: 400.0 mg/kg/injection, schedule: Q01DX001 (ip), vehicle: carboxymethylcellulose (CMC)
[6] = dose: 400.0 mg/kg/injection, schedule: Q04DX003 (ip), vehicle: saline with Tween-80
[7] = dose: 100.0 mg/kg/injection, schedule: Q04DX003 (ip), vehicle: acetone
[8] = dose: 200.0 mg/kg/injection, schedule: Q04DX003 (ip), vehicle: acetone
[9] = dose: 400.0 mg/kg/injection, schedule: Q04DX003 (ip), vehicle: acetone

Structure (SMILES): O=C(NC/C(Br)=C/Br)Nc1c2ccccc2nc2ccccc12
- survivor count (dose: 150.0 mg/kg/injection, schedule: Q01DX009 (ip), vehicle: Klucel (hydroxypropylcellulose) (HPC)): 6 of 6
- survivor count (dose: 300.0 mg/kg/injection, schedule: Q01DX009 (ip), vehicle: Klucel (hydroxypropylcellulose) (HPC)): 6 of 6

Structure (SMILES): CC(C)CCC[C@@H](C)[C@H]1CC[C@H]2[C@@H]3CC[C@H]4C[C@H](NC(=O)N(CCF)N=O)CC[C@]4(C)[C@H]3CC[C@]12C
- T/C (dose: 125.0 mg/kg/injection, schedule: Q01DX001 (ip), vehicle: other): 131 % of control

Structure (SMILES): O=[N+]([O-])CC(Nc1ccc(Br)cc1)c1ccccc1 (stereo unspecified)
- T/C [1]: 127 % of control

Structure (SMILES): CC1(C)/C(=N\N=C2/C3CCC(C3)C2(C)C)C2CCC1C2
- survivor count [1]: 6 of 6
- survivor count (dose: 200.0 mg/kg/injection, schedule: Q01DX009 (ip), vehicle: saline with Tween-80): 0 of 6
- survivor count (dose: 400.0 mg/kg/injection, schedule: Q04DX003 (ip), vehicle: saline): 0 of 6

Structure (SMILES): O=[N+]([O-])c1ccc(Cl)c(I)c1
- survivor count (dose: 100.0 mg/kg/injection, schedule: Q01DX009 (ip), vehicle: saline + alcohol): 3 of 3

Structure (SMILES): c1ccc2c(c1)C1=NCCN1c1ccccc1-2
- survivor count (dose: 100.0 mg/kg/injection, schedule: Q04DX003 (ip), vehicle: Klucel (hydroxypropylcellulose) (HPC)): 0 of 6
- survivor count [2]: 0 of 6
- survivor count [3]: 0 of 6

Structure (SMILES): S=c1nc[nH]c2c1[nH]c(=S)n2CCc1cnc[nH]1
- survivor count (dose: 800.0 mg/kg/injection, schedule: Q01DX001 (ip), vehicle: steroid suspending solution): 0 of 6

Structure (SMILES): NCc1c(Cl)c(Cl)c(Cl)c(CN)c1Cl
- survivor count [4]: 1 of 4
- survivor count [5]: 0 of 4

Structure (SMILES): COC(=O)c1ccc(C(=O)CC(=O)c2ccccc2)cc1.COC(=O)c1ccc(C(=O)CC(=O)c2ccccc2)cc1.COC(=O)c1ccc(C(=O)CC(=O)c2ccccc2)cc1.COC(=O)c1ccc(C(=O)CC(=O)c2ccccc2)cc1.COC(=O)c1ccc(C(=O)CC(=O)c2ccccc2)cc1.[Th]
- survivor count (dose: 200.0 mg/kg/injection, schedule: Q01DX005 (ip), vehicle: Klucel (hydroxypropylcellulose) (HPC)): 3 of 3
- survivor count (dose: 400.0 mg/kg/injection, schedule: Q01DX005 (ip), vehicle: Klucel (hydroxypropylcellulose) (HPC)): 2 of 3

Structure (SMILES): O=C(OC1COC(OCc2ccccc2)C(OC(=O)c2ccccc2)C1OC(=O)c1ccccc1)c1ccccc1 (stereo unspecified)
- survivor count (dose: 50.0 mg/kg/injection, schedule: Q04DX003 (ip), vehicle: saline with Tween-80): 6 of 6
- survivor count (dose: 200.0 mg/kg/injection, schedule: Q04DX003 (ip), vehicle: saline with Tween-80): 6 of 6
- survivor count [6]: 6 of 6

Structure (SMILES): CCCCCCC(=O)N(CCC)CCC
- survivor count [5]: 3 of 6
- survivor count (dose: 400.0 mg/kg/injection, schedule: Q01DX009 (ip), vehicle: carboxymethylcellulose (CMC)): 0 of 3 and 0 of 6
- survivor count (dose: 400.0 mg/kg/injection, schedule: Q04DX003 (ip), vehicle: carboxymethylcellulose (CMC)): 3 of 6

Structure (SMILES): CCC1(C)C(=O)N(C)C(=O)N1Br (stereo unspecified)
- survivor count (dose: 100.0 mg/kg/injection, schedule: Q01DX009 (ip), vehicle: Klucel (hydroxypropylcellulose) (HPC)): 1 of 6
- survivor count [2]: 3 of 6
- survivor count [3]: 3 of 6

Structure (SMILES): O=NN(CCCl)C(=O)Nc1ccc2c(c1)CCCC2
- T/C (dose: 16.0 mg/kg/injection, schedule: Q01DX001 (ip), vehicle: carboxymethylcellulose (CMC)): 130 % of control
- T/C (dose: 55.0 mg/kg/injection, schedule: Q01DX001 (ip), vehicle: carboxymethylcellulose (CMC)): 142 % of control
- T/C (dose: 62.0 mg/kg/injection, schedule: Q01DX001 (ip), vehicle: carboxymethylcellulose (CMC)): 134 % of control
- survivor count (dose: 375.0 mg/kg/injection, schedule: Q01DX001 (ip), vehicle: carboxymethylcellulose (CMC)): 4 of 6
- survivor count (dose: 476.0 mg/kg/injection, schedule: Q01DX001 (ip), vehicle: carboxymethylcellulose (CMC)): 2 of 10
- survivor count (dose: 500.0 mg/kg/injection, schedule: Q01DX001 (ip), vehicle: carboxymethylcellulose (CMC)): 0 of 6
- survivor count (dose: 750.0 mg/kg/injection, schedule: Q01DX001 (ip), vehicle: carboxymethylcellulose (CMC)): 0 of 6
- survivor count (dose: 1000.0 mg/kg/injection, schedule: Q01DX001 (ip), vehicle: carboxymethylcellulose (CMC)): 0 of 6

Structure (SMILES): CCCCCCCCCCCCCCCCP(=O)(OCCOCCCCCC)OCCOCCCCCC
- survivor count (dose: 75.0 mg/kg/injection, schedule: Q01DX009 (ip), vehicle: saline): 3 of 6
- survivor count [7]: 2 of 6
- survivor count (dose: 115.0 mg/kg/injection, schedule: Q01DX009 (ip), vehicle: saline): 2 of 6
- survivor count (dose: 170.0 mg/kg/injection, schedule: Q01DX009 (ip), vehicle: saline): 1 of 6
- survivor count [8]: 4 of 6
- survivor count [9]: 1 of 6

Structure (SMILES): C=CCN(CC=C)c1nc(Cl)nc(Cl)n1
- survivor count [4]: 1 of 4
- survivor count [5]: 0 of 4
- survivor count (dose: 400.0 mg/kg/injection, schedule: Q04DX002 (ip), vehicle: Klucel (hydroxypropylcellulose) (HPC)): 3 of 3

Structure (SMILES): c1ccc(-c2nn(-c3ccccc3)[n+](-c3ccccc3-c3ccccc3)n2)cc1
- survivor count (dose: 32.0 mg/kg/injection, schedule: Q01DX015 (ip), vehicle: carboxymethylcellulose (CMC)): 3 of 6

Structure (SMILES): CC1(C)N=C(N)N=C(N)N1c1ccc(CNC(=O)Nc2ccc(S(=O)(=O)F)cc2)c(Cl)c1
- T/C (dose: 100.0 mg/kg/injection, schedule: Q01DX009 (ip), vehicle: saline): 130 % of control
- T/C (dose: 150.0 mg/kg/injection, schedule: Q01DX009 (ip), vehicle: saline): 135 % of control

Structure (SMILES): Cn1cc(C(O)CN2CCCCC2)c2ccccc21 (stereo unspecified)
- survivor count (dose: 100.0 mg/kg/injection, schedule: Q04DX003 (ip), vehicle: saline with Tween-80): 1 of 3

Structure (SMILES): C/C=C(/C#N)c1ccccc1
- survivor count [6]: 0 of 6

Structure (SMILES): CC(=O)NCCOc1ccc([N+](=O)[O-])cc1Cl
- survivor count (dose: 400.0 mg/kg/injection, schedule: Q01DX001 (ip), vehicle: Klucel (hydroxypropylcellulose) (HPC)): 1 of 3

Structure (SMILES): O=C(CCN1CC1)OCCOC(=O)CCN1CC1
- T/C (dose: 7.1 mg/kg/injection, schedule: Q01DX Z (ip), vehicle: methylcellulose (MC)): 147 % of control
- T/C (dose: 10.0 mg/kg/injection, schedule: Q01DX005 (ip), vehicle: saline): 131 % of control
- T/C (dose: 10.6 mg/kg/injection, schedule: Q01DX Z (ip), vehicle: methylcellulose (MC)): 130 % of control
- T/C (dose: 16.5 mg/kg/injection, schedule: Q01DX009 (ip), vehicle: acetone): 144 % of control
- T/C (dose: 25.0 mg/kg/injection, schedule: Q04DX003 (ip), vehicle: acetone): 134 % of control
- T/C (dose: 25.0 mg/kg/injection, schedule: Q04DX003 (ip), vehicle: saline): 126 % of control
- T/C (dose: 33.0 mg/kg/injection, schedule: Q01DX001 (ip), vehicle: saline): 130 % of control
- T/C (dose: 50.0 mg/kg/injection, schedule: Q01DX001 (ip), vehicle: saline): 125 and 126 % of control
- survivor count (dose: 67.5 mg/kg/injection, schedule: Q01DX009 (ip), vehicle: saline): 1 of 6
- T/C (dose: 75.0 mg/kg/injection, schedule: Q01DX001 (ip), vehicle: saline): 135 % of control
- survivor count (dose: 100.0 mg/kg/injection, schedule: Q01DX001 (ip), vehicle: saline): 1 of 4
- survivor count [7]: 3 of 6
- survivor count (dose: 125.0 mg/kg/injection, schedule: Q01DX009 (ip), vehicle: saline): 0 of 6
- survivor count (dose: 200.0 mg/kg/injection, schedule: Q01DX001 (ip), vehicle: saline): 0 of 4
- survivor count [8]: 0 of 6
- survivor count (dose: 400.0 mg/kg/injection, schedule: Q01DX001 (ip), vehicle: saline): 1 of 4
- survivor count [9]: 0 of 6

Structure (SMILES): CC(=O)C(Sc1ccccc1[N+](=O)[O-])C(C)=O.[Cr]
- survivor count (dose: 200.0 mg/kg/injection, schedule: Q01DX001 (ip), vehicle: other): 4 of 4
